The values below come from patent US6664406B1, “Nervonic acid derivatives, their preparation and use” (Croda International PLC, priority 1999, dated 2003).

In the data set the test system is neurological EAE in the Lewis rat.

Turning to `CCC=CCC=CCC=CCC=CCC=CC/C=C\CCC(=O)OCCCOC(=O)CCCCCCCCCCCCC/C=C\CCCCCCCC` [NA:DHA, 1-(z-15-tetracosenoyloxy)-3-(z-4,7,10,13,16,19-docosahexaenoyloxy)propane], for the setting “500 mg/kg/day”, the “body weight loss beginning” value was 8 days after inoculation.
`CCCCC/C=C\C/C=C\C/C=C\CCCCC(=O)OCCCOC(=O)CCCCCCCCCCCCC/C=C\CCCCCCCC` [NA:GLA, 1-(z-15-tetracosenoyloxy)-3-(z,z,z-6,9,12-octadecatrienoyloxy)propane]: where the note is “low and high dose (750 and 1000 mg/kg/day)”, the “Body weight loss began later than recorded in other treatments” value was 2 days.
